In paper PMC8325298:
Results are given in words; binding and its absence hold for the method and conditions named. Binding seen in cells or lysates may run through a third protein. Here binding means that the protein was enriched with, or labelled near, the bait; the list need not be complete. For some of these results: Tags and fused reporters may be left off the sequences shown. Values belong to the molecule of their own block, whether it stands above or below them.

Chains of the proteins cited; added tags and fusions are not shown.
UniProt O95782: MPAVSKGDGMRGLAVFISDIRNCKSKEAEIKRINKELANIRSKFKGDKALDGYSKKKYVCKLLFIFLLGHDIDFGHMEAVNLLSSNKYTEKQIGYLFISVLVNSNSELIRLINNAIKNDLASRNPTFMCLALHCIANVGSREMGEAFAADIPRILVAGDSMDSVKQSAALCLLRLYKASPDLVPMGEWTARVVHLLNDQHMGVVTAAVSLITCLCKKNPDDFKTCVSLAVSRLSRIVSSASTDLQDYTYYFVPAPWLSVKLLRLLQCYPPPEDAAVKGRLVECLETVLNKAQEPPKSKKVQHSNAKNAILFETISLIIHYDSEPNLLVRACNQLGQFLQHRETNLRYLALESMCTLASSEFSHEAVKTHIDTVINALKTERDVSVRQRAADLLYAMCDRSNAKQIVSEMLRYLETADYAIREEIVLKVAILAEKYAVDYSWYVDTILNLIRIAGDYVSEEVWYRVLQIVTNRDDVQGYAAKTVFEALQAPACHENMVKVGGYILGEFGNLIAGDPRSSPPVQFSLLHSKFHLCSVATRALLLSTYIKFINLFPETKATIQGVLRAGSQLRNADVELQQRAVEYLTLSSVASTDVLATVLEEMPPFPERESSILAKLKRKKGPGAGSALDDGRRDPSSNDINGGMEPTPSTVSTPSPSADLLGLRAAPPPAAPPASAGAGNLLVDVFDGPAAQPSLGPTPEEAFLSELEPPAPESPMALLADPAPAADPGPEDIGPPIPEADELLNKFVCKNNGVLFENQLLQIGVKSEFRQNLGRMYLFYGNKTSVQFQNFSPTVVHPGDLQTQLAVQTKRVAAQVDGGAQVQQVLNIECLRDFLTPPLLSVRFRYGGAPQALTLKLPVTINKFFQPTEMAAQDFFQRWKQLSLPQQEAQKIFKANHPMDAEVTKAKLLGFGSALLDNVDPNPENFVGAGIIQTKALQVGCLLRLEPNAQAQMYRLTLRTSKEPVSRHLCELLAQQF

Key:
[1] = molecular target: T1, MYO1F (bait of the immunoprecipitation followed by mass spectrometry) (UniProt O00160); test: affinity purification with mass spectrometry; immunoprecipitation of MYO1F followed by mass spectrometry
T1 sequence: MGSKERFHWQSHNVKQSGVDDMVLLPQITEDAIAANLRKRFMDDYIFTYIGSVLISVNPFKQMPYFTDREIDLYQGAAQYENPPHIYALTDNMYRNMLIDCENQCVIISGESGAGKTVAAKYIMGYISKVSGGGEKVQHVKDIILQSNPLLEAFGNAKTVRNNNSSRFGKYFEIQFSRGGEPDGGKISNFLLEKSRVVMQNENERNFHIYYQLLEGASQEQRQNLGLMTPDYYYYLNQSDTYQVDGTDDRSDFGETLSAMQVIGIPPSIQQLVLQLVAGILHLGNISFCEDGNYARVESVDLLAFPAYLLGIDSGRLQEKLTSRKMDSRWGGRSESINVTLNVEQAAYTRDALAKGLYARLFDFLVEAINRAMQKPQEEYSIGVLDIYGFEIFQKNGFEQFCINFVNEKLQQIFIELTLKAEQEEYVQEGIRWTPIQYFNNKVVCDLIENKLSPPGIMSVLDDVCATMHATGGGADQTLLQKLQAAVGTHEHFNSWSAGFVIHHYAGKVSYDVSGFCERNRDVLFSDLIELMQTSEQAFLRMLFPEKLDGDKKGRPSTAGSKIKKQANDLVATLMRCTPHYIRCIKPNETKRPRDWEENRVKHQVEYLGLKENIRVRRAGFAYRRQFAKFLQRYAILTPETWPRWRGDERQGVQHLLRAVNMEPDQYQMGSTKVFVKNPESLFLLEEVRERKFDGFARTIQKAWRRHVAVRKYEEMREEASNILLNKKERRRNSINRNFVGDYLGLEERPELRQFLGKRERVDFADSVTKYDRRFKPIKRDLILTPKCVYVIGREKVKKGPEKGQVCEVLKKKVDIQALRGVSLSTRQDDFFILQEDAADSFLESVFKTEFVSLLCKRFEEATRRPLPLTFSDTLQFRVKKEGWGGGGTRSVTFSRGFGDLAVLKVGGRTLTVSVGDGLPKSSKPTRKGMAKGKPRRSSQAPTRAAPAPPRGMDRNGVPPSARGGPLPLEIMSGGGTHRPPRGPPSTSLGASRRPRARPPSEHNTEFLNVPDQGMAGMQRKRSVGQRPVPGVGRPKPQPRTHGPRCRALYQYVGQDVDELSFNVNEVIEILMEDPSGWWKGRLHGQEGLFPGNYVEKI

[2] = molecular target: T2, TAGAP (bait of the GST pulldown assay) (UniProt Q8N103); test: affinity purification with mass spectrometry; GST pulldown assay and mass spectrometry to identify TAGAP-interacting proteins
T2 sequence: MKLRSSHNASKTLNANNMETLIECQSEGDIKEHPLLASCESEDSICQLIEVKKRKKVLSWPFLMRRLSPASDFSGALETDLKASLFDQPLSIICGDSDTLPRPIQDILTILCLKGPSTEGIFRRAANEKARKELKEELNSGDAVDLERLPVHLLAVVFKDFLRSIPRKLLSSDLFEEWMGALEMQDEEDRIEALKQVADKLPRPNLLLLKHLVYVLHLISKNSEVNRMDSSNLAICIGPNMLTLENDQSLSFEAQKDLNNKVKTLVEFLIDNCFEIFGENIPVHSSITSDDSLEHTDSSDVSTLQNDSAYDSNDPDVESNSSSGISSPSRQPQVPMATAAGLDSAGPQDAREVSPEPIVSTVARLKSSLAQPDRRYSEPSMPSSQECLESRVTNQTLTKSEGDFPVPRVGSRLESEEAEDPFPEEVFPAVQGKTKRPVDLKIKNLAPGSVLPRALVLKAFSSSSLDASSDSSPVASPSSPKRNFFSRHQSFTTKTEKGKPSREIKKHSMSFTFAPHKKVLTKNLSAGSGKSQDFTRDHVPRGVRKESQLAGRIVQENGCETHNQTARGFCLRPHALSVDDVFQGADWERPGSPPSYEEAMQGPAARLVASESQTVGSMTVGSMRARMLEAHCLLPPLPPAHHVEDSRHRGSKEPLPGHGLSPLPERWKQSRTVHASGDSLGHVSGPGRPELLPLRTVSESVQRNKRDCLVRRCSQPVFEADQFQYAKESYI

- binding [1]: binds
Molecule: AP2A1 (hit of the MYO1F immunoprecipitation with mass spectrometry) (from UniProt O95782 1-977)

- binding [1]: binds
Molecule: α-tubulin (hit of the MYO1F immunoprecipitation with mass spectrometry)

- binding [1]: binds
Molecule: β-tubulin (hit of the MYO1F immunoprecipitation with mass spectrometry)

- binding [2]: binds
B1: Myosin 1f (MYO1F), hit of the TAGAP GST pulldown (protein, UniProt O00160 1-1098)
chain: T1 sequence
